Data reported in the supplement of paper PMC3334620.
Over roughly 33,000 sequences, “E-score (-0.5 to 0.5)” has its median near -0.016; the highest 2% begin near 0.3. The list shows a part of the results.

Molecular target: T1, Yer184c (UniProt P39961)
T1 sequence: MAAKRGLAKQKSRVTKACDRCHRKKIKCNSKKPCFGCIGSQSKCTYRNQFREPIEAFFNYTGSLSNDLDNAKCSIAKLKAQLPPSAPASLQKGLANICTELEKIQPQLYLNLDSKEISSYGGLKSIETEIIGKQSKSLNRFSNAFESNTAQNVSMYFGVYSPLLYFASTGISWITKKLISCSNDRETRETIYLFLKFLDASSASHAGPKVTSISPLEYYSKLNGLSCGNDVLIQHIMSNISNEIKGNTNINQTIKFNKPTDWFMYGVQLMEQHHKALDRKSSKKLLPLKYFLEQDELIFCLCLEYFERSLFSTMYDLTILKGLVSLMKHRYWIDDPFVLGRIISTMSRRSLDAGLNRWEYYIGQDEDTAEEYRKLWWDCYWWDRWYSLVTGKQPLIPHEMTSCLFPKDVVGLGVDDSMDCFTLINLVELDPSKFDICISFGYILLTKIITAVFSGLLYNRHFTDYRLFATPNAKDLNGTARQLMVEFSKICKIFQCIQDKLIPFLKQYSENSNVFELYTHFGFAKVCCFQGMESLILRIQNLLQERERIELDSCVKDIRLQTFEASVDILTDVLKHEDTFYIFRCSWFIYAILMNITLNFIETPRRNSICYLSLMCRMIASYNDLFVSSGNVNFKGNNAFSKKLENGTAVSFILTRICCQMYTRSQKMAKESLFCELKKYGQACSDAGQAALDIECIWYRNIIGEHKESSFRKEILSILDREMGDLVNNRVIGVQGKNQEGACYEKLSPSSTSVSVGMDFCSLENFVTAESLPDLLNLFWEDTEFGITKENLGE
Test: PBM E-score (8-mer binding enrichment) (E-score (-0.5 to 0.5)); higher = stronger / more preferred TF binding
Settings: protein concentration: 100 nM; construct: GST-full length
In short: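 GST-tagged yeast TFs (full-length or DNA-binding domain) were made by PURExpress in vitro transcription/translation and applied at about 100-200 nM to universal all-10-mer Agilent arrays. The arrays were made double-stranded by primer extension, on fresh or once-stripped slides. Bound protein was detected with fluorescent anti-GST, and scans were normalised with masliner. Each ungapped eight-base word, pooled with its reverse complement, received an E-score (modified Wilcoxon-Mann-Whitney statistic) from the Universal PBM Analysis Suite.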

Sequence	PBM E-score
AATCGATG	0.161
AAAGGTAC	0.0559
TCCCCCGA	-0.132
ATACTGAG	0.126
CATGTCAC	-0.0529
ATGCGAAG	-0.0567
CCAAAATA	0.177
CTTTTCAA	0.11
GGAGCCCC	-0.315
CAAAGAGC	0.115
ATTCAGCA	0.0605
CCTTGTGC	-0.266
CGCCGAGC	0.344
CGTAGACA	-0.0945
TGCCCCAA	-0.0927
GAGGTTAC	-0.0142
GAAAATAC	0.227
AAATCATG	0.0112
CCGTAAAG	0.155
GGCGCCCA	0.0579
CTGGTGGA	-0.206
GGGGGAAA	-0.0917
CTAAATGC	0.0828
AAAGGGAA	-0.0699
AACGAATG	0.105

Sequence	PBM E-score
CAGTATAC	-0.0142
CAAATACG	-0.00546
CGGGGTTC	-0.103
AGAAACCC	0.121
TAATGTAA	0.17
AGCAGCCA	-0.0945
GACTTGAA	0.00543
CCCTGAAG	-0.213
AGCCTCGA	-0.125
GCTTACAA	0.0356
AAAGGGAT	-0.036
AGAAAGCC	0.0302
ACCCGCGG	0.351
CTCTCCTC	-0.27
CGTTCTAC	-0.083
CAAGAAAA	0.242
TACCCGCA	0.17
CAATGGAG	-0.164
AGTCACCG	-0.0615
CGGTGGAC	-0.148
GACATGGA	-0.0994
CCTGGAGA	-0.035
GATGTGAC	-0.0811
CACTCGAG	0.0738
GATCGATC	-0.147

Sequence	PBM E-score
CCTCCTCC	-0.146
CCCTGGGA	-0.144
CAACTACA	0.051
GCCAGCCA	-0.259
ATGTACCA	0.00915
AACATGCC	0.0234
CCGCTACA	-0.0684
ATTACCAA	0.0909
GCAAGTCC	-0.11
CTCGGGCA	0.17
AGACCATA	0.122
CTTAGTGA	-0.078
ATGACTCC	-0.0942
CGAGCCGA	0.299
AAGGGCCG	0.0222
GGTACCCA	-0.187
ATCAAAAT	0.0991
GGTAGGAA	-0.0256
AACGTTCA	-0.282
AGGGCATC	-0.296
CATGCGTA	-0.0609
CCAAGAAA	0.136
TGCACGCA	-0.151
AATACTAA	0.157
ATCTGATC	0.134

In another format: entries from further up.
CCCTGGGA
  PBM E-score = -0.144
CAACTACA
  PBM E-score = 0.051
GCCAGCCA
  PBM E-score = -0.259
ATGTACCA
  PBM E-score = 0.00915

Remaining list, next part.

Sequence	PBM E-score
ACGGACTA	0.0981
GGTGAATA	0.0495
AAACAGAC	0.0301
CCGTCGCC	0.0461
CGCTTAAG	-0.133
TAACCGAA	0.254
GTGACCTA	-0.0502
AAATCCGA	0.214
CGTGGTAG	-0.0241
CGCTGATC	0.0987
CCTTGTAC	-0.0976
CCCCATAC	-0.196
AGTTTTGG	0.043
AGCTCAGG	-0.0444
GGAACCAC	0.0749
CATCCAGG	-0.24
ATATACTC	-0.0639
CACTATAA	-0.0525
AAGCCGGC	0.374
AGCGTATA	-0.0154
GCGGTCTA	0.03
CCAAGGTC	-0.16
AGCAATTG	0.0989
ACGCAGCT	-0.0846
ACCATAGC	-0.052

Sequence	PBM E-score
ACACGTTA	-0.274
AAAAATTC	0.0768
AAAAGCAC	-0.0881
CACGTGCG	-0.085
CACCTCCA	-0.0907
TAACAACA	0.114
CTTGTTGC	0.0746
ATTAGCCG	0.272
CACGTAAG	-0.165
CCGCTGTC	-0.0701
AAGCCTGC	-0.114
ATTGACAA	-0.0306
CCAGCAAA	0.0844
TATACCGA	0.28
AAATTTGC	0.176
AAATACTA	0.0492
ACCTAGCG	-0.0417
ATAGCTGG	-0.106
AGGGGCGG	-0.132
CAATAGGG	-0.17
CGAGTCCC	0.0175
ACATTGTC	0.196
AAACCCAC	0.0014
ATAATCAG	0.0974
CATGGGTA	-0.155

Sequence	PBM E-score
CGTATGAC	0.0296
GTCTGGTA	-0.154
GATGAAGC	0.0006
TCTACCCA	-0.132
GGCTCGAA	0.0128
GAGGACCC	-0.148
ATACCAGG	-0.122
AGATTAAC	0.00456
CCACGGGC	-0.094
ACGCAGAA	0.0373
ACAATTGA	0.00728
GTTTAAGA	-0.00403
ACCGCAGC	-0.172
AGTTTGAA	0.0928
CTCTCAGC	-0.287
CCCGCTCG	-0.173
CTCAAGAG	-0.335
AGCTCTAA	-0.0792
AGCATGCA	-0.256
CACTAATA	0.136
AGACACCT	-0.173
CCTTACCG	0.114
ATATTGTA	0.134
ATGTAGAC	-0.111
ATAGTTAG	0.131

Sequence	PBM E-score
TAGGATGA	-0.0545
GTATTGTA	0.129
CAATGATC	0.0401
ATTGGACA	0.179
ATAGTACG	0.0144
AAGCCAAG	-0.0123
CATCGATG	0.0168
CACACGGA	0.0751
CTGCGACA	0.0292
GGGCTACC	-0.178
CCACTACC	-0.172
GGAGCGCC	-0.217
CCTCCGAC	-0.179
CCCGAGCC	0.155
CTAACACA	0.169
ATGTTAGA	-0.12
CTATTATA	0.113
AAGCACTA	-0.0951
CACTAGGA	-0.0866
TATTGGCA	0.0426
GCTCCTTA	0.00377
TCGCCCCA	-0.25
